PubChem BioAssay AID1259424 | University of Nebraska Medical Center – 2018
Test: 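Find knockdowns that reproduce the expression shifts seen after KSR1 loss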 (primary screen). Cell system: human HCT116 colon cancer cells. Reagents: siRNA pool against human genes, 50 nM. Read-out: 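Log2 levels of six mRNAs (branched-DNA multiplex), adjusted by two reference genes and the non-targeting median, then scored against the average KSR1 knockdown pattern as Pearson r and euclidean distance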. Scale: mean correlation with KSR1 profile: higher = expression change more like KSR1 knockdown; mean distance from KSR1 profile: higher = expression change less like KSR1 knockdown.
The whole screen tested about 14,000 reagents; this is a part drawn at random. 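Higher correlation or smaller distance means closer resemblance to KSR1 loss; control wells, including KSR1 knockdowns, recur on many plates.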 A reagent listed more than once was tested more than once; the source does not tell the runs apart. Further read-outs or replicates are left out here. The record does not give: the time to read-out.

Knock-down of RNF13 (ring finger protein 13) gave: mean correlation with KSR1 profile 0.338; mean distance from KSR1 profile 1.45.
Depletion of TFRC (transferrin receptor) resulted in: mean correlation with KSR1 profile 0.0515; mean distance from KSR1 profile 4.88.
For SMYD5 (SMYD family member 5) the deposit lists mean correlation with KSR1 profile 0.118; mean distance from KSR1 profile 2.32.
OXGR1 (oxoglutarate receptor 1) gave mean correlation with KSR1 profile -0.23; mean distance from KSR1 profile 2.2.
DNTTIP1 (deoxynucleotidyltransferase terminal interacting protein 1) gave mean correlation with KSR1 profile 0.0688; mean distance from KSR1 profile 4.61.
For GCN1 (GCN1 activator of EIF2AK4) the deposit lists mean correlation with KSR1 profile -0.553; mean distance from KSR1 profile 2.32.
TXNIP (thioredoxin interacting protein) scored mean correlation with KSR1 profile 0.426; mean distance from KSR1 profile 1.73.
Depletion of STYX (serine/threonine/tyrosine interacting protein) came out at: mean correlation with KSR1 profile -0.0679; mean distance from KSR1 profile 1.74.

Records above whose gene name starts with S or s:
SMYD5 (SMYD family member 5) → mean correlation with KSR1 profile = 0.118; mean distance from KSR1 profile = 2.32
STYX (serine/threonine/tyrosine interacting protein) → mean correlation with KSR1 profile = -0.0679; mean distance from KSR1 profile = 1.74

Next records follow:
With knock-down of CDC42SE1 (CDC42 small effector 1) the results were mean correlation with KSR1 profile -0.0165; mean distance from KSR1 profile 1.94.
For WRN (WRN RecQ like helicase) the deposit lists mean correlation with KSR1 profile 0.209; mean distance from KSR1 profile 3.79.
DRICH1 (aspartate rich 1) showed mean correlation with KSR1 profile 0.574; mean distance from KSR1 profile 1.52.
Against GOSR1 (golgi SNAP receptor complex member 1), the values are mean correlation with KSR1 profile -0.273; mean distance from KSR1 profile 2.29.
Silencing of ZNF33A (zinc finger protein 33A) came out at: mean correlation with KSR1 profile 0.225; mean distance from KSR1 profile 1.52.
ERI1 (exoribonuclease 1) gave mean correlation with KSR1 profile -0.467; mean distance from KSR1 profile 2.03.
Against SPG7 (SPG7 matrix AAA peptidase subunit, paraplegin), the entry reads mean correlation with KSR1 profile -0.251; mean distance from KSR1 profile 1.82.
For SPG7 (SPG7 matrix AAA peptidase subunit, paraplegin), the entry reads mean correlation with KSR1 profile -0.478; mean distance from KSR1 profile 2.63.
After knock-down of SPG7 (SPG7 matrix AAA peptidase subunit, paraplegin), the screen gave mean correlation with KSR1 profile 0.321; mean distance from KSR1 profile 1.15.
Knock-down of GSDME (gasdermin E) came out at: mean correlation with KSR1 profile -0.326; mean distance from KSR1 profile 1.81.
Silencing of CFD (complement factor D) gave: mean correlation with KSR1 profile 0.309; mean distance from KSR1 profile 1.52.
